Results reported in patent US20230295635.
For some assays here: Weaker means in comparison with the reference protein, sequence or condition of that experiment. For some assays here: Construct, isoform or probe ends are uncertain for at least one entry. For some assays here: A negative result means that nothing was seen under these conditions.

How the values were obtained:
[1] = system: Eosinophil peroxidase (EPX); experiment: EMSA; conditions: 3 nM aptamer, 5 nM EPX, purified native protein, label: 5'-FAM, single-stranded DNA, variant of EAP1-05
[2] = system: Myeloperoxidase (MPO); experiment: FP; conditions: PBS, slightly increased non-specific binding, purified native protein, protein details: Cedarlane #426-10-0.1, untagged commercial protein, label: 5'-FAM, single-stranded DNA
[3] = system: Thyroid peroxidase (TPO); experiment: pull-down; conditions: HB, 1 uM protein; no TMB signal; purified recombinant protein; protein details: Cedarlane #ABIN934717; label: 5'-biotin; single-stranded DNA; variant of EAP1-05T3

## CCATCCTACCAACCAGGGGGACAGTGCAAAGGGGTAGGGAG [EAP1-05T1]
[1]; 3' stem loop removed, bound fraction significantly reduced, protein details: Cedarlane #342-60-0.1, untagged commercial protein
  binding result: binds more weakly

## ATGCCATCCTACCAACCAGGGGGACAGTGCAAAGGGAGCTCTGAACTCG [EAP1-05T3]
[2]; variant of EAP1-05
  binding result: binds more weakly

## TTTTTTTTTTATGCCATCCTACCAACCAGGGGGACAGTGCAAAGGGAGCTCTGAACTCG [EAP1-05T3BT]
[3]
  binding result: no binding

## ATGCCATCCTACCAACCAGGGGGACAGTGCAAAGGGGTAGGGAGGGGGCTAGGGGGGAGCTCTGAACTGG [EAP1-05]
[2]
  binding result: binds more weakly

## ATGCCATCCTACCAACCAGAAAGACAGTGCAAAGAAATAGAAAGAGAGCTAGAAGAAAGCTCTGAACTCG [EAP1-05T4]
[1]; G to A replacements, significant reduction, protein details: Cedarlane #342-60-0.1, untagged commercial …
  binding result: binds more weakly
